This is one part of the list.
Assays:
Test in all cases: log2 fold change, soluble protein after heating vs DMSO (PISA); higher = thermal stabilisation; K562 cells, 10 uM, 30 min; active = over 0.2 and 3.5 SD of the protein, either way, in both replicates (recomputed)
[1] = compound: C1=CC=C(C=C1)[C@H](COC2=CC3=C(C=C2)NC(=O)N3)NC(=O)C4=CC=CN(C4=O)CC5=CC(=C(C=C5)F)F
Summary of the method: (§1)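 Soluble protein was quantified by TMTpro 16plex LC-MS/MS after channel sums were equalised. It was obtained as the supernatant after 21,000xg for 90 min from pooled aliquots of K562 cells (2×10^6 cells/mL, 10 μM compound, 30 min) heated for 3 min across 48°C-58°C and extracted in PBS with 0.5% NP-40 at 4°C. Thermal stability values are relative to control samples and come from duplicates. They are given as log2 fold changes.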

By UniProt entry, the sequences of proteins in these tests, tags left out. Where a name states a change or a piece, a line headed by the entry shows the natural chain unless it says otherwise.
UniProt Q5T3I0: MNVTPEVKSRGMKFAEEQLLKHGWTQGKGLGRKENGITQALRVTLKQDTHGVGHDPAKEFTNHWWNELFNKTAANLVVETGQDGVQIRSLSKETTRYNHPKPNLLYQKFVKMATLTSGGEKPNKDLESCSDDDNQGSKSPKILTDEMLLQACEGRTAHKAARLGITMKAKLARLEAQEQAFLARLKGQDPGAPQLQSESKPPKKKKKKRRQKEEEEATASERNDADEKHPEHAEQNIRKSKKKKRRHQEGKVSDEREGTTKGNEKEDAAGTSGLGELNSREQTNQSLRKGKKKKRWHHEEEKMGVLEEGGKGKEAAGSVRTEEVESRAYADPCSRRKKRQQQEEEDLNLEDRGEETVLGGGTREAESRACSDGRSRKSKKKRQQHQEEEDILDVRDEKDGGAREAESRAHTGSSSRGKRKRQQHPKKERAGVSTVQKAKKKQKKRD
UniProt P62879, whole entry, looked up: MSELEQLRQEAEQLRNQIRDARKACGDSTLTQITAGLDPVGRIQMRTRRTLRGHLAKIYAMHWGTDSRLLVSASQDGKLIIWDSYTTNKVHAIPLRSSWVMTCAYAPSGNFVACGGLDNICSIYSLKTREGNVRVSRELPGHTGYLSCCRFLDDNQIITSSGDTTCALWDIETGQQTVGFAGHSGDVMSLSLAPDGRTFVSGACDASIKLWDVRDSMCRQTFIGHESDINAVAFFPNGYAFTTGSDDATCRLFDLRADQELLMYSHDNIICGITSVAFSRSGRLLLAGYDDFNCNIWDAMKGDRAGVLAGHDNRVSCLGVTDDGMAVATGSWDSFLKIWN
UniProt Q9H4G4: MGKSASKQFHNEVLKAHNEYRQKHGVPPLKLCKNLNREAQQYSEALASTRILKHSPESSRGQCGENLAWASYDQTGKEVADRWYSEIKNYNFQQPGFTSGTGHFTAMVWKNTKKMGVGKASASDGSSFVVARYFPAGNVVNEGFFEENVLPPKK
UniProt Q9Y248: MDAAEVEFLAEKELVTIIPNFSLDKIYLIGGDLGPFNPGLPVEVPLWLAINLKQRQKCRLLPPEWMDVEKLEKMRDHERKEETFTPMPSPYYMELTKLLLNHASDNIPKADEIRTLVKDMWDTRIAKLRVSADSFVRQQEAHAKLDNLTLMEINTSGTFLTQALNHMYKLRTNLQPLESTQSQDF
UniProt Q53EU6: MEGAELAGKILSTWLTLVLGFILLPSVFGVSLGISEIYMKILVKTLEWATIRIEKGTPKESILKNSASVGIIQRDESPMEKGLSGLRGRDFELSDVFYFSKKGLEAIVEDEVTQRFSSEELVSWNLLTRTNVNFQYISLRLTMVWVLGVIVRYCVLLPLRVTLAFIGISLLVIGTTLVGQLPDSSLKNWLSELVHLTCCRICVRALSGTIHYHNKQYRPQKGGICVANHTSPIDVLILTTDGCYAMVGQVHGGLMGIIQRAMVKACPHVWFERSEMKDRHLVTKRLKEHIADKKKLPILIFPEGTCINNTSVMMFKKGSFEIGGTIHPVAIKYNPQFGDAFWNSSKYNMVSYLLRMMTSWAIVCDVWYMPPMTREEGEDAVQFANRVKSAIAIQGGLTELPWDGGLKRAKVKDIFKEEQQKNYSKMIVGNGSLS
UniProt Q9NU53: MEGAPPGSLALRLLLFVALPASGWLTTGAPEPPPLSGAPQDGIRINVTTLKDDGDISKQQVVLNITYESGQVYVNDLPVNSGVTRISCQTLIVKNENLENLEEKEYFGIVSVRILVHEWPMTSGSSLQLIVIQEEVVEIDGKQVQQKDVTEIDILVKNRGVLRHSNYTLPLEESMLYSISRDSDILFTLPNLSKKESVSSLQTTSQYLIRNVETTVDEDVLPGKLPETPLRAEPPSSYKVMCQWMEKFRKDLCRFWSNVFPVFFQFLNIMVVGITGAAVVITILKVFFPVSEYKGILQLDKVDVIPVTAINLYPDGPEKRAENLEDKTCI
UniProt Q9HCN4, whole entry, looked up: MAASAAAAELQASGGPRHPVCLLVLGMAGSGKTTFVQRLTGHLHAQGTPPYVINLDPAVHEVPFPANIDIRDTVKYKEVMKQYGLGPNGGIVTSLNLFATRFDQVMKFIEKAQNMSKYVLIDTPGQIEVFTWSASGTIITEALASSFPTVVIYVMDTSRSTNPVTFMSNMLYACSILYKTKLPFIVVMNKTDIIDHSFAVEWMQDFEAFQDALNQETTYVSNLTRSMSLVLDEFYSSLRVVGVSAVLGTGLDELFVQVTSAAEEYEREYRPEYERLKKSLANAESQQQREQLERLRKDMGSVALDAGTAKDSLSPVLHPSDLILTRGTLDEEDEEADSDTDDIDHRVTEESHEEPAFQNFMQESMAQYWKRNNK
UniProt P17302, whole entry, looked up: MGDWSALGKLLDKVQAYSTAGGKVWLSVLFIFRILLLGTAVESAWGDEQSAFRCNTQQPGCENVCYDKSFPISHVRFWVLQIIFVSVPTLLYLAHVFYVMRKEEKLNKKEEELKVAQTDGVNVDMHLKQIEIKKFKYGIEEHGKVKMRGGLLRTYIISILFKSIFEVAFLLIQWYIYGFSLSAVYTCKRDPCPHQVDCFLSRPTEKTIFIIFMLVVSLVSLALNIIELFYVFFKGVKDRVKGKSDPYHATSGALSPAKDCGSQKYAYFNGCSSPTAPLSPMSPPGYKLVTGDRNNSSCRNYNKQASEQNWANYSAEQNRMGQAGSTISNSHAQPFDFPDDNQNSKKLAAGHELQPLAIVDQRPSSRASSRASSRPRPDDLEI
UniProt Q08378: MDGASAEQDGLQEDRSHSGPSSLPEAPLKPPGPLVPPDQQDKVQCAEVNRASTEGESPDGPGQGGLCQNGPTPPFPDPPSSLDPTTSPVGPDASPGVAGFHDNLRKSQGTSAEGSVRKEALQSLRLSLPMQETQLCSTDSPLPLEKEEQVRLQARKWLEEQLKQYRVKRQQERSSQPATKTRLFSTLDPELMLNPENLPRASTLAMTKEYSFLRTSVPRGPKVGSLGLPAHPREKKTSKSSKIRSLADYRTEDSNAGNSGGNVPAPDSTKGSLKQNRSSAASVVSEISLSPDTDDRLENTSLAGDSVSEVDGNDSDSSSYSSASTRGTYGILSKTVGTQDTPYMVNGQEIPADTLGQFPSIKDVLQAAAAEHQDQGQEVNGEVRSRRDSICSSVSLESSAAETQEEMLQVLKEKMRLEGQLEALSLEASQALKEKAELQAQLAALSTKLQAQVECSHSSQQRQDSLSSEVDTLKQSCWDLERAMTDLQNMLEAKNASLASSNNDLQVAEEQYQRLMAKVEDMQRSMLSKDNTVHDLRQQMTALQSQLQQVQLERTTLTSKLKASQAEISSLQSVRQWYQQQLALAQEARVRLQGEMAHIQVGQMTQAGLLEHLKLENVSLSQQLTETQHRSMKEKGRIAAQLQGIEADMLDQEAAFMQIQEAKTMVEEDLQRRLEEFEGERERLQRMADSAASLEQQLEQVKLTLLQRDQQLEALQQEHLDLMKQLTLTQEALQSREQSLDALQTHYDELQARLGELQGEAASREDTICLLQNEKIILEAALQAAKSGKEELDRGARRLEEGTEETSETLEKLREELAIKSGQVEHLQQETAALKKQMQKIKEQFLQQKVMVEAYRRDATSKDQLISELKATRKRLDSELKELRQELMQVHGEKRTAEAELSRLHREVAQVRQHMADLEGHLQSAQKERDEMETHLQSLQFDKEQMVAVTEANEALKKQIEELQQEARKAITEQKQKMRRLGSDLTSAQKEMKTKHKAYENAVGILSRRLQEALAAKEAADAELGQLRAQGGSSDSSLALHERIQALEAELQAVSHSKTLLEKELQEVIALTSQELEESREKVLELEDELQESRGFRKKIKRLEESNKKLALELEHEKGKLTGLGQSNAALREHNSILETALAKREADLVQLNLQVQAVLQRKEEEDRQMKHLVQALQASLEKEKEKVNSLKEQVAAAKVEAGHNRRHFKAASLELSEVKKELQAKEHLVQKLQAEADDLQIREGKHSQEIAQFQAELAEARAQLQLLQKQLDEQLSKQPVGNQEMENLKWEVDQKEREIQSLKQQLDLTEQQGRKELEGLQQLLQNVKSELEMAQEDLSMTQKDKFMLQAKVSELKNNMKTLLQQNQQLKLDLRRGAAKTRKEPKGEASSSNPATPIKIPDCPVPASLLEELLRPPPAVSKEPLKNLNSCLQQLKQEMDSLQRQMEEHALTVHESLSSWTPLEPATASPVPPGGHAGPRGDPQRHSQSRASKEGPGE
UniProt Q9HAV0, whole entry, looked up: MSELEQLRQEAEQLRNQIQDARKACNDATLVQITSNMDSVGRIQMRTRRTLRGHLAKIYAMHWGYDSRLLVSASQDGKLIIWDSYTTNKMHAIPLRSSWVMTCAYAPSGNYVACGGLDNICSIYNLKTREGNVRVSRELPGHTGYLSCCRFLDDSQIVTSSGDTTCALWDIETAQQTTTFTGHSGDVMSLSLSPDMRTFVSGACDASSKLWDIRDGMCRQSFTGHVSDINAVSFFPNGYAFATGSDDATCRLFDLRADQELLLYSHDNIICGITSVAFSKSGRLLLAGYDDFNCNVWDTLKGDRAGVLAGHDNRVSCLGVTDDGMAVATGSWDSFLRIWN

[2] = compound: CC1=C(SC2=C1C(=N[C@H](C3=NN=C(N32)C)CC(=O)N)C4=CC=C(C=C4)Cl)C
Summary of the method: as §1

[3] = compound: CC1=C2C(=CC=C1)N=C(N(C2=O)C3=CC=CC=C3C)CN4C=NC5=C(N=CN=C54)N
Summary of the method: as §1

[4] = compound: Cc1sc2c(c1C)C(c1ccc(Cl)cc1)=N[C@@H](CC(=O)OC(C)(C)C)c1nnc(C)n1-2
Summary of the method: as §1

[5] = compound: c1ccc([C@@H]2C[C@H]2NC2CCNCC2)cc1
Summary of the method: as §1

Measured: log2 fold change

GPATCH4 isoform 3 (UniProt Q5T3I0)
inactive: [1] -0.362 | [2] -0.328 | [3] -0.094 | [4] 0.174 | [5] -0.134

GNB2 (UniProt P62879)
inactive: [1] 0.025 | [2] 0.045 | [3] 0.029 | [4] -0.09 | [5] -0.015

GLIPR2 (UniProt Q9H4G4)
inactive: [1] -0.092 | [2] -0.091 | [3] -0.009 | [4] 0.028 | [5] -0.017

GINS2 (UniProt Q9Y248)
inactive: [1] -0.011 | [2] 0.102 | [3] 0.115 | [4] -0.033 | [5] -0.026

GPAT3 (UniProt Q53EU6)
inactive: [1] 0.086 | [2] -0.084 | [3] 0.036 | [4] -0.092 | [5] 0.019

GINM1 (UniProt Q9NU53)
inactive: [1] 0.117

GPN1 isoform 5 (UniProt Q9HCN4)
inactive: [1] 0.033 | [2] -0.041 | [3] 0.062 | [4] -0.087 | [5] 0.019

GJA1 (UniProt P17302)
inactive: [1] 0.087

GOLGA3 (UniProt Q08378)
inactive: [1] 0.007 | [2] 0.04 | [3] 0.042 | [4] 0.012 | [5] -0.023

GNB4 (UniProt Q9HAV0)
inactive: [1] 0.001 | [2] -0.026 | [3] -0.062 | [4] -0.011 | [5] 0.047
